Assay results taken from PubChem BioAssay AID2685 (National Center for Advancing Translational Sciences (NCATS), 2010).
Some of the results follow. These are further read-outs of the screen, such as a control signal, another cell line or another target. No call is given for them. The list favours compounds with an active or inconclusive main result. Potencies come from curve fits of mixed quality, noted in brackets.

Experiment: qHTS Assay for Lipid Storage Modulators in Drosophila S3 Cells;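 on cell number change: cells counted by Cell Tracker Red CMTPX staining in the red channel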
Conditions: BODIPY lipid droplet fluorescence, 18-24 h; for cell number change: measured here: cell count max response, cells fed with added oleic acid
Method in brief: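 Drosophila S3 cells got compounds at several concentrations plus oleic acid (400 uM solution). Laser-scanning cytometry with 488 nm excitation read lipid droplets at 500-530 nm and cells at 575-640 nm. Percent activity was relative to 20 uM Triacsin C.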

[1] = measured here: lipid fluorescence (Fed channel) AC50, cells fed with added oleic acid
[2] = measured here: cell number channel AC50, cells fed with added oleic acid

Compound	cell number change	AC50 [1]	AC50 [2]
CC1CCN(CCOc2cccc(Br)c2)CC1	-4.9%	–	–
Cc1cc(C(=O)N2CCN(C(=O)C3CCCO3)CC2)no1 (stereo unspecified)	-9.45%	4.61 µM [falling, full curve, poor fit]	–
COc1ccc(OCC(O)CN2CCOCC2)cc1 (stereo unspecified)	13.5%	7.31 µM [falling, partial curve, poor fit]	–
O=C1C2C3C=CC(C4CC34)C2C(=O)N1/N=C/c1ccc(-c2ccc(Cl)cc2[N+](=O)[O-])o1 (stereo unspecified)	10.4%	1.64 µM [falling, partial curve, poor fit]	–
CCCCc1nc(SCC(=O)N2CCCCC2)c2c(=O)n(C)c(=O)n(C)c2n1	-10.1%	–	–
CC(=O)c1cccc(NC(=O)C2CCCN(S(=O)(=O)c3cccc4nonc34)C2)c1 (stereo unspecified)	109%	29.1 µM [rising, single point]	29.1 µM [rising, single point]
O=C(CSc1nnc(Cc2ccccc2)o1)Nc1ccc(Br)cn1	-28.3%	4.11 µM [falling, full curve]	–
CN(CCOc1ccccc1)CCOc1ccccc1	-2.56%	–	6.51 µM [rising, single point]
CC(C)OCCCn1c(-c2ccc(Br)cc2)c[nH]c1=S	-45.5%	29.1 µM [falling, single point]	29.1 µM [falling, single point]
CN1CCN(C(=O)CCNC(=O)Cn2cnc3ccccc3c2=O)CC1	19.4%	2.91 µM [falling, single point]	0.731 µM [rising, full curve, poor fit]
O=C(CSCc1ccc(F)cc1)NCc1ccco1	39%	–	29.1 µM [rising, single point]
CCN(CC)S(=O)(=O)c1cc([N+](=O)[O-])ccc1NNC(=O)Nc1ccc(Cl)c(Cl)c1	-61.9%	18.4 µM [falling, single point]	20.6 µM [falling, single point]
O=C(Nc1ccc(C(=O)N2CCOCC2)cc1)c1cc(-c2cccnc2)nc2ccc(Br)cc12	24%	0.092 µM [falling, full curve, poor fit]	0.13 µM [falling, full curve, poor fit]
CCOc1ccc(CCNC(=O)c2ccc3c(=O)[nH]c4c(C(=O)NC(C)C)sc(=S)n4c3c2)cc1	-19.4%	0.92 µM [falling, full curve, poor fit]	–
O=S1(=O)CCC(N2CCOCC2)C1 (stereo unspecified)	-28.5%	29.1 µM [falling, partial curve]	–
Cc1cccc(NC(=O)CSc2nnc(CCC(=O)Nc3ccc(C)c(Cl)c3)n2C)c1	-81.2%	–	29.1 µM [falling, single point]
O=C(NCCOCc1ccccc1)C(c1ccccc1)c1ccccc1	-58.2%	–	–
O=C(c1ccc(CNS(=O)(=O)c2ccccc2)cc1)N1CCN(Cc2ccccc2)CC1	6.03%	3.26 µM [falling, partial curve]	–
C=CCOc1ccccc1CN(CCc1ccccc1)C(=O)c1cccc(S(C)(=O)=O)c1	–	6.51 µM [falling, single point]	–
Cn1cc(/C=C(\NC(=O)c2ccccc2Cl)C(=O)NCCN2CCOCC2)c2ccccc21	-6.6%	6.51 µM [rising, single point]	–

Compound	cell number change	AC50 [1]	AC50 [2]
COc1cc(C(=O)NCc2nnc(SCC(=O)NCCc3ccccc3)o2)cc(OC)c1OC	36%	29.1 µM [rising, single point]	29.1 µM [rising, single point]
COc1ccc(C)cc1NC(=O)c1cc2c(=O)n3ccccc3nc2n1C	7.56%	2.91 µM [rising, single point]	–
COc1ccc(N=Cc2[nH]c3ccccc3c2O)cc1	-37.6%	32.6 µM [falling, single point]	0.206 µM [falling, full curve, poor fit]
COc1ccc(/C=N/Nc2cc(C)nc3ccc(OC)cc23)c(OC)c1	-67.6%	–	11.6 µM [falling, partial curve]
CCC(C)N(C(=O)COC(=O)COc1c(C)cc(C)cc1C)C1CCS(=O)(=O)C1 (stereo unspecified)	-24%	–	–
Cc1cc(C)nc(N2C(=O)CC(C(=O)O)NC2=NCCc2c[nH]c3ccccc23)n1 (stereo unspecified)	8.24%	–	–
COc1ccc(C(=O)N2CCN(C3CCCCC3)CC2)c(OC)c1	-8.09%	25.9 µM [rising, single point]	–
Cc1ccc(C(=O)NC2CCCCNC2=O)cc1C (stereo unspecified)	30.4%	16.4 µM [rising, partial curve, poor fit]	0.00411 µM [rising, full curve, poor fit]
CCOC(=O)c1ccc(-c2ccc3c(=O)c4ccccc4n(C)c3c2)cc1F	–	29.1 µM [rising, single point]	–
COc1ccc(NCc2ccccc2[N+](=O)[O-])cc1OC	15.1%	–	–
O=[N+]([O-])c1ccc(O)c(CN2CCCCCC2)c1	-15%	–	–
COc1ccc(NC(=O)Cn2nnc(C(=O)NCc3ccco3)c2N)c(OC)c1	-6.25%	–	1.3 µM [falling, full curve]
CC(=O)Nc1ccc2nc(NC(=O)CN3CCOCC3)sc2c1	15.3%	6.51 µM [falling, single point]	–
CCOc1ccc(-n2cnnn2)cc1S(=O)(=O)NCc1ccccc1	-10%	29.1 µM [falling, single point]	–
Cc1cccc(N(C)C(=O)c2cc3cc4ccc(C)cc4nc3o2)c1	–	0.58 µM [falling, single point]	6.51 µM [rising, single point]
O=C(/C=C/c1cnc2ccccc2n1)NC12CC3CC(CC(C3)C1)C2	-15.1%	–	–
CC(C)C[C@@H](C(=O)NCC1CCCO1)N1C(=O)N2CCc3c([nH]c4ccccc34)[C@@]2(C)C1=O (stereo partly specified)	0.647%	29.1 µM [falling, single point]	–
Cc1ccc(C)c(Cn2c(=O)c3c(nc4n3CCN4Cc3ccco3)n(C)c2=O)c1	103%	–	–
O=C(Nc1cccc(Cl)c1)Nn1cnnc1	10.9%	18.4 µM [falling, partial curve, poor fit]	–
Cc1ccc2[nH]c3c(NCc4ccccc4)ncnc3c2c1	-30.6%	–	29.1 µM [falling, single point]

Compound	cell number change	AC50 [1]	AC50 [2]
Cc1ccc(CNC(=O)c2cn(C3CCCC3)c(=O)c3c2c2ccccc2n3C)o1	38.4%	–	29.1 µM [rising, single point]
CCOC(=O)c1c(CSc2ccccc2)oc2ccc(O)cc12	-59.9%	14.6 µM [falling, partial curve, poor fit]	20.6 µM [falling, single point]
CCOc1ccc(CCNC(=O)c2cc(-c3ccccc3)c(N3CCOCC3)s2)cc1OCC	4.44%	23.1 µM [falling, single point]	–
Cc1ccc(C(=O)NCCCN2CCOCC2)cc1S(=O)(=O)N1CCCCC1	-3.2%	16.4 µM [falling, single point]	–
Nc1cc(=O)[nH]c(SCC(=O)Nc2ccccc2Sc2ccccc2)n1	39.9%	0.082 µM [falling, partial curve, poor fit]	–
FC(F)(F)c1ccccc1NC(=S)N1CCc2ccccc2C1	–	–	2.06 µM [rising, partial curve, poor fit]
COc1ccc(/C=C/c2nc(-c3ccccc3O)n[nH]2)cc1	-13.8%	29.1 µM [falling, single point]	0.326 µM [falling, full curve, poor fit]
COc1ccc(N2C(=O)/C(=C\c3ccco3)N=C2SCC(=O)NC(C)C)cc1Cl	-22.3%	18.4 µM [falling, single point]	–
S=C(NCc1ccc2c(c1)OCO2)NCc1ccc2c(c1)OCO2	–	–	4.11 µM [rising, single point]
COc1cccc(N2CC(NS(=O)(=O)c3cccs3)CC2=O)c1 (stereo unspecified)	44.2%	29.1 µM [rising, single point]	29.1 µM [rising, single point]
COC(=O)C1=CN(Cc2cccs2)C=C(C(=O)OC)C1c1cccc(OC)c1OC	-0.573%	2.59 µM [rising, single point]	0.082 µM [falling, full curve, poor fit]
Cc1[nH]c(C(=O)N/N=C/c2ccc(N(C)C)cc2)c(C)c1C(=O)N/N=C/c1ccc(N(C)C)cc1	81.2%	–	13 µM [rising, partial curve]
CCN(CC)c1ccc(-c2nn3c(-c4cccnc4)nnc3s2)cc1	-5.46%	0.731 µM [falling, full curve]	–
S=c1[nH]nc2c3c4c(sc3ncn12)CCCC4	10.5%	9.2 µM [rising, partial curve, poor fit]	–
CCn1nc(CC(=O)Nc2nnc(CC(=O)N3CCCCC3)s2)c2ccccc2c1=O	132%	20.6 µM [rising, partial curve]	23.1 µM [rising, partial curve]
C=CCn1c(CNS(=O)(=O)c2ccc(Cl)cc2)n[nH]c1=S	–	5.8 µM [rising, full curve, poor fit]	–
CCCc1cc(=O)[nH]c(SCC(=O)NC2CCCCC2)n1	-27.3%	23.1 µM [falling, partial curve]	0.82 µM [falling, full curve, poor fit]
CCOc1ccc(NC(=O)N2CCN(Cc3ccc4c(c3)OCO4)CC2)cc1	-18.9%	23.1 µM [falling, single point]	–

Arranged by molar mass (low to high): some entries from above
Compound	cell number change	AC50 [1]	AC50 [2]
S=c1[nH]nc2c3c4c(sc3ncn12)CCCC4	10.5%	9.2 µM [rising, partial curve, poor fit]	–
COc1ccc(/C=C/c2nc(-c3ccccc3O)n[nH]2)cc1	-13.8%	29.1 µM [falling, single point]	0.326 µM [falling, full curve, poor fit]
CCCc1cc(=O)[nH]c(SCC(=O)NC2CCCCC2)n1	-27.3%	23.1 µM [falling, partial curve]	0.82 µM [falling, full curve, poor fit]
CCOC(=O)c1c(CSc2ccccc2)oc2ccc(O)cc12	-59.9%	14.6 µM [falling, partial curve, poor fit]	20.6 µM [falling, single point]
FC(F)(F)c1ccccc1NC(=S)N1CCc2ccccc2C1	–	–	2.06 µM [rising, partial curve, poor fit]
S=C(NCc1ccc2c(c1)OCO2)NCc1ccc2c(c1)OCO2	–	–	4.11 µM [rising, single point]
CCN(CC)c1ccc(-c2nn3c(-c4cccnc4)nnc3s2)cc1	-5.46%	0.731 µM [falling, full curve]	–
COc1cccc(N2CC(NS(=O)(=O)c3cccs3)CC2=O)c1 (stereo unspecified)	44.2%	29.1 µM [rising, single point]	29.1 µM [rising, single point]
CCOc1ccc(NC(=O)N2CCN(Cc3ccc4c(c3)OCO4)CC2)cc1	-18.9%	23.1 µM [falling, single point]	–
Cc1ccc(CNC(=O)c2cn(C3CCCC3)c(=O)c3c2c2ccccc2n3C)o1	38.4%	–	29.1 µM [rising, single point]
Cc1ccc(C(=O)NCCCN2CCOCC2)cc1S(=O)(=O)N1CCCCC1	-3.2%	16.4 µM [falling, single point]	–
COc1ccc(N2C(=O)/C(=C\c3ccco3)N=C2SCC(=O)NC(C)C)cc1Cl	-22.3%	18.4 µM [falling, single point]	–
CCn1nc(CC(=O)Nc2nnc(CC(=O)N3CCCCC3)s2)c2ccccc2c1=O	132%	20.6 µM [rising, partial curve]	23.1 µM [rising, partial curve]
CCOc1ccc(CCNC(=O)c2cc(-c3ccccc3)c(N3CCOCC3)s2)cc1OCC	4.44%	23.1 µM [falling, single point]	–
